Structures can show the parent of a compound that is named as a salt. ± gives the standard deviation of the averaged measurements. The list shows a part of the results. Small differences around the control level are noise.
What follows are compounds tested on hPSC-derived cortical neurons (WA09) (assay: nucleus area z-score vs screen plate; higher = larger nuclei (more mature)). Conditions: 5 µM; treatment: days 7-14 after plating, readout day 21.

SMILES | nucleus area z-score
CN/C(=N\CCSCc1nc[nH]c1C)NC#N [Cimetidine] | -0.155
CC1(C)[C@@H](O)CC[C@]2(C)[C@H]3C(=O)C=C4[C@@H]5C[C@@](C)(C(=O)O)CC[C@]5(C)CC[C@@]4(C)[C@]3(C)CC[C@@H]12 [Enoxolone] | -0.745
C[C@@H](c1ncncc1F)[C@](O)(Cn1cncn1)c1ccc(F)cc1F [Voriconazole] | 0.128
CC(=O)C1=C(O)C=C2Oc3c(C(C)=O)c(O)c(C)c(O)c3C2(C)C1=O (single isomer, unassigned; (+)) [(+)-Usniacin] | -0.112
Nc1cccc(-c2cc3c(Oc4cccc(O)c4)ncnc3[nH]2)c1 | 0.605
CC(C)CN(C[C@@H](O)[C@H](Cc1ccccc1)NC(=O)O[C@H]1CCOC1)S(=O)(=O)c1ccc(N)cc1 [Amprenavir] | -0.108
C#C[C@]1(O)CC[C@H]2[C@@H]3CCC4=CC(=O)CC[C@@H]4[C@H]3CC[C@@]21C [Norethindrone] | -0.341
C[C@@H]1C/C=C/C=C/C=C/C=C/[C@H](O[C@@H]2O[C@H](C)[C@@H](O)[C@H](N)[C@@H]2O)C[C@@H]2O[C@](O)(C[C@@H](O)C[C@H]3O[C@@H]3/C=C/C(=O)O1)C[C@H](O)[C@H]2C(=O)O [Natamycin] | 0.798
O=c1cc(-c2ccc(O)cc2)oc2cc(O)cc(O)c12 [Apigenin] | 1.45
CN1CCN(S(=O)(=O)c2ccc(-c3cnc(N)c(C(=O)Nc4cccnc4)n3)cc2)CC1 | -0.245
COc1ccc(/C=C\c2cc(OC)c(OC)c(OC)c2)cc1O [Combretastatin A4] | -11.8
C[C@H]1COC2=C1C(=O)C(=O)c1c2ccc2c1CCCC2(C)C [Cryptotanshinone] | 2.12
CC(C)C[C@H](NC(=O)[C@@H](NC(=O)c1cccc(-c2ccccc2)n1)[C@@H](C)O)B(O)O | -7.26

Arranged by length of the SMILES (high to low): part of the list above.
SMILES | nucleus area z-score
CC(C)CN(C[C@@H](O)[C@H](Cc1ccccc1)NC(=O)O[C@H]1CCOC1)S(=O)(=O)c1ccc(N)cc1 [Amprenavir] | -0.108
CN1CCN(S(=O)(=O)c2ccc(-c3cnc(N)c(C(=O)Nc4cccnc4)n3)cc2)CC1 | -0.245
Nc1cccc(-c2cc3c(Oc4cccc(O)c4)ncnc3[nH]2)c1 | 0.605

The compounds below were run on hPSC-derived cortical neurons (WA09) (assay: total neurite length per nucleus (MAP2) z-score; higher = more neurite growth). Conditions: 5 µM; treatment: days 7-14 after plating, readout day 21.

SMILES | total neurite length per nucleus (z-score)
CC[C@@H](C)Nc1cc(C(=O)N[C@H]2C[C@H]3CC[C@@H](C2)N3c2ccc(C(=O)C3CC3)cn2)c(C)cc1C(N)=O | 1.52
CN[C@@H]1[C@@H](O[C@H]2O[C@H](CO)[C@@H](N)[C@H](O)[C@H]2O)OC2C[C@@H](N)[C@@H](O[C@H]3[C@H](O)[C@@H](O)[C@H](N)C[C@@H]3N)OC2[C@@H]1O (some centres undefined) [Apramycin Sulfate] | 0.0517
COc1cc2ncnc(Nc3cccc(Cl)c3F)c2cc1OC(=O)N1CCN(C)C[C@H]1C | 1.11
Cc1ccc(C(=O)Nc2ccc(CN3CCN(C)CC3)c(C(F)(F)F)c2)cc1C#Cc1cnc2[nH]ncc2c1 | -4.21
Cc1nc2n(c(=O)c1CCN1CCC(c3noc4cc(F)ccc34)CC1)CCCC2O (centres undefined) [Paliperidone] | 0.724
C[n+]1ccccc1/C=N/O [Pralidoxime chloride] | 1.16
CN1CCN(C(=O)/C=C/c2ccc([N+](=O)[O-])o2)CC1 | -1.25
Cc1nc2n(c(=O)c1CCN1CCC(c3noc4cc(F)ccc34)CC1)CCCC2 [Risperidone] | -0.156
CC(C)(C)c1cnc(CSc2cnc(NC(=O)C3CCNCC3)s2)o1 | -3.24
O=C1c2ccccc2C(=O)C1c1ccccc1 [Phenindione] | 0.373
COc1ccccc1OCC(O)CO (centres undefined) [Guaifenesin] | 0.468
CCCCCC(=O)O[C@]1(C(C)=O)CC[C@H]2[C@@H]3CCC4=CC(=O)CC[C@]4(C)[C@H]3CC[C@@]21C [Hydroxyprogesterone caproate] | -0.227
COc1cc2c(cc1OC)[C@@H]1Cc3ccc(OC)c(OC)c3CN1CC2 [Rotundine] | -3.07
Cc1nc(NC(=O)N2CCC[C@H]2C(N)=O)sc1-c1ccnc(C(C)(C)C(F)(F)F)c1 | -0.27
COc1cc2nc(N3CCN(C(=O)C4CCCO4)CC3)nc(N)c2cc1OC (centres undefined) [Terazosin HCl] | 0.0173 ± 0.48
O=C1c2c(O)cc(O)cc2O[C@H](c2cc(O)c(O)c(O)c2)[C@H]1O [Dihydromyricetin] | -0.0691
CN(C)CCCCC(=O)Nc1ccc(NC(=S)NC(=O)c2ccc(C(C)(C)C)cc2)cc1 [Tenovin-6] | -0.888
Cc1ccc2c(Cl)cc(Cl)c(O)c2n1 [Chlorquinaldol] | -0.0519
O=C(O)CCc1nc2ccccc2[nH]1 [Procodazole] | 0.339
N#CC1(c2ccc(NC(=O)c3cccnc3NCc3ccncc3)cc2)CCCC1 [Apatinib] | 0.463
COc1cc(Nc2ncc(F)c(Nc3ccc4c(n3)NC(=O)C(C)(C)O4)n2)cc(OC)c1OC [R406 (free base)] | 0.811

— the supplement of paper PMC11348887
